{
  "source": "PubChem BioAssay AID1347076",
  "about": "(National Center for Advancing Translational Sciences (NCATS), 2019)",
  "note": "About 13,000 (3.2%) of roughly 400,000 compounds were called active. Inconclusive results, whose numbers are uncertain, are shown with a selection of clear calls. The call rests on the fitted dose curve; in most records, active means well fitted cell-killing curve with a large enough effect; inconclusive means small, poorly fitted or top-dose-only effect, or effect the other way; inactive means flat fitted curve, though single readings scatter. Potencies of inconclusive entries are doubtful fits and often do not repeat. On the % scale 0 is the no-effect control and ±100 the full control effect; potency means the concentration at half of the fitted maximal effect.",
  "data": [
    {"experiment": "qHTS assay for MDR1-selective chemotherapeutics: Primary screen using the drug-selected MDR subline cells KB-V1; further: nearly all actives have a fitted effect of over 60% in size", "settings": "KB-V1 MDR cells viability, CellTiter-Glo, 72 h; activity change, negative = cytotoxicity: at 46.1 µM (top of the series)", "method_in_brief": "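Cytotoxicity via CellTiter-Glo luminescence after 72 h compound exposure at 37 degrees C. Cells: drug-selected KB-V1 line, DMEM phenol-red free plus 10% FBS. Compounds tested at multiple concentrations; normalized data fitted to concentration-effect curves.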", "values": [
      {"smiles": "Nc1ccc(Cc2nc3c(ccc4ccccc43)[nH]2)cc1", "activity change, negative = cytotoxicity": "inactive: 1.28%"},
      {"smiles": "COc1ccc2nc3sc(C(=O)N4CCN(C)CC4)cc3cc2c1", "activity change, negative = cytotoxicity": "inactive: -16.7%"},
      {"smiles": "NC(=O)C(=O)N/N=C/c1c[nH]c2ccc(Br)cc12", "Potency": "inconclusive: 29.1 µM [rising, single point]"},
      {"smiles": "CCN(CC)C(=O)C1=C(C)N(Cc2ccc(C(C)(C)C)cc2)C(=O)C(CC(=O)NCCN2CCOCC2)C1", "note": "(stereo unspecified)", "activity change, negative = cytotoxicity": "inactive: -4.11%"},
      {"smiles": "COc1ccccc1C(=O)Nc1cc2c(cc1N1CCCC1)n(C)c(=O)c(=O)n2C", "Potency": "inconclusive: 23.1 µM [rising, single point]"},
      {"smiles": "CN(C)c1ccc(CNc2ccccn2)cc1", "Potency": "inconclusive: 20.6 µM [rising, single point]"},
      {"smiles": "Cn1cc(/C=C/C(=O)c2ccccc2)c2ccccc21", "Potency": "inconclusive: 3.66 µM [cytotoxic, single point]"},
      {"smiles": "O=C(O)c1ccccc1C(=O)c1ccc2oc(=O)[nH]c2c1", "activity change, negative = cytotoxicity": "inactive: -5.02%"},
      {"smiles": "Cc1ccc(S(=O)(=O)NCCc2nnc3ccc(NCCCOC(C)C)nn23)cc1", "Potency": "inconclusive: 0.651 µM [rising, full curve, poor fit]"},
      {"smiles": "CC(C)(C)N1C(=O)Cc2c1nc(N)c1c(N)nc(N3CCCCC3CO)c(C#N)c21", "note": "(stereo unspecified)", "Potency": "inconclusive: 29.1 µM [cytotoxic, single point]"},
      {"smiles": "Cc1cc2cc(CN(Cc3cccs3)C(=S)NCC3CCCO3)c(=O)[nH]c2cc1C", "note": "(stereo unspecified)", "Potency": "inconclusive: 14.6 µM [cytotoxic, partial curve]"},
      {"smiles": "Cc1ccc(CN2CCSc3ccc(C(=O)NCC(C)c4ccccc4)cc32)cc1", "note": "(stereo unspecified)", "activity change, negative = cytotoxicity": "inactive: 0%"},
      {"smiles": "Cc1cc(Br)c2[nH]cc(CCNC(=O)c3ccco3)c2c1", "activity change, negative = cytotoxicity": "inactive: 0.235%"},
      {"smiles": "CC(C)CCOC(=O)C1C(c2ccccc2)C(C(=O)O)C1c1ccccc1", "note": "(stereo unspecified)", "activity change, negative = cytotoxicity": "inactive: -11.5%"},
      {"smiles": "Cn1c(N)c(C(=O)COC(=O)c2nc(Cl)ccc2Cl)c(=O)n(C)c1=O", "Potency": "inconclusive: 13 µM [rising, partial curve]"},
      {"smiles": "CCCCc1c(-c2ccccc2OC)ncn1Cc1ccc(-c2ccccc2)cc1", "Potency": "active: 10.3 µM"},
      {"smiles": "CC(C)n1cc(/C=C2\\NC(=O)N(c3cccc(Cl)c3)C2=O)c2ccccc21", "Potency": "inconclusive: 14.6 µM [cytotoxic, partial curve]"},
      {"smiles": "CCc1ccc(N2C=C(C(=O)OC)C(c3cccc4ccccc34)C(C#N)=C2N)cc1", "note": "(stereo unspecified)", "Potency": "inconclusive: 4.61 µM [cytotoxic, partial curve]"},
      {"smiles": "FC(F)(F)c1ccc(CN2C[C@@H]3C(c4ccc(Cl)nc4)C4(c5cccnc5)CC3(C4)[C@H]2c2ccccc2)cc1", "note": "(stereo partly specified)", "Potency": "inconclusive: 29.1 µM [cytotoxic, single point]"},
      {"smiles": "CN(CC(=O)NCc1cccs1)CC(=O)Nc1ccc(F)c(F)c1F", "Potency": "inconclusive: 23.1 µM [cytotoxic, partial curve, poor fit]"},
      {"smiles": "COc1cc2nc(C3CCC3)n(NC(=O)C3CCC(OC)CC3)c(=O)c2cc1OC", "note": "(stereo unspecified)", "Potency": "inconclusive: 8.2 µM [cytotoxic, partial curve]"},
      {"smiles": "Cc1ccc(-n2nc3c(=O)n(C(C)C(=O)NCCCc4ccccc4)nc(C)c3c2C)cc1", "note": "(stereo unspecified)", "Potency": "inconclusive: 3.66 µM [cytotoxic, partial curve, poor fit]"},
      {"smiles": "CC(=O)c1ccc(NC(=O)CCCSc2nc(-c3ccco3)cc(C(F)(F)F)n2)cc1", "Potency": "inconclusive: 6.51 µM [cytotoxic, partial curve]"},
      {"smiles": "Oc1ccc(NCc2ccccc2OCc2ccccc2F)cc1", "Potency": "inconclusive: 20.6 µM [cytotoxic, single point]"},
      {"smiles": "CC(/C=N/NC(=O)c1cc(-c2ccc(C)s2)[nH]n1)=C\\c1ccccc1", "Potency": "inconclusive: 29.1 µM [cytotoxic, single point]"},
      {"smiles": "Cc1ccc(OCCCCn2cnc3ccccc32)c(C)c1", "Potency": "inconclusive: 20 µM [cytotoxic, single point]"},
      {"smiles": "Cc1ccc2nc(-c3sc4nc(C)ccc4c3N)[nH]c2c1", "activity change, negative = cytotoxicity": "inactive: 0%"},
      {"smiles": "CCN(c1cccc(C)c1)S(=O)(=O)c1ccc(OC)c([N+](=O)[O-])c1", "Potency": "inconclusive: 18.4 µM [cytotoxic, single point]"},
      {"smiles": "O=S1(=O)CCN(Cc2ccccc2)CC1", "Potency": "inconclusive: 10.3 µM [rising, partial curve, poor fit]"},
      {"smiles": "O=C1CCCN1C1CCN(Cc2ccccc2)S(=O)(=O)N1", "note": "(stereo unspecified)", "activity change, negative = cytotoxicity": "inactive: -12.5%"},
      {"smiles": "OC[C@@H]1[C@@H](c2ccc(Cl)cc2)C(c2ccc(F)cc2)=NN1c1ccccc1", "activity change, negative = cytotoxicity": "inactive: 0%"},
      {"smiles": "Cc1cccc(N(CC(=O)NCc2ccccc2)C(=O)Cn2nnc(-c3ccc(C)o3)n2)c1", "Potency": "active: 2.91 µM"},
      {"smiles": "O=C(CSc1ncn[nH]1)Nc1ccc(Cl)c(S(=O)(=O)N2CCOCC2)c1", "Potency": "inconclusive: 23.1 µM [rising, single point]"},
      {"smiles": "Cc1c(Cl)cccc1NC(=O)c1ccc2snnc2c1", "Potency": "inconclusive: 3.66 µM [rising, full curve, poor fit]"},
      {"smiles": "CCN(Cc1ccccc1)S(=O)(=O)c1cc(C(=O)NC2CCCCCC2)ccc1OC", "Potency": "inconclusive: 9.2 µM [cytotoxic, partial curve, poor fit]"},
      {"smiles": "CC(=O)Nc1ccc(S(=O)(=O)NCCSCc2cccc(Cl)c2)cc1", "activity change, negative = cytotoxicity": "inactive: 5.57%"},
      {"smiles": "Nc1cccnc1S(=O)(=O)c1cccc(C(F)(F)F)c1", "activity change, negative = cytotoxicity": "inactive: 10%"},
      {"smiles": "CCn1c(SCC(=O)NC2CC2)nnc1C(C)Oc1ccccc1", "note": "(stereo unspecified)", "activity change, negative = cytotoxicity": "inactive: -1.71%"},
      {"smiles": "Cc1n[nH]c(C)c1S(=O)(=O)N1CCCC(C(=O)NC2CCCc3ccccc32)C1", "note": "(stereo unspecified)", "activity change, negative = cytotoxicity": "inactive: -1.05%"},
      {"smiles": "CCc1ccc(CN2CCCC(CNS(=O)(=O)c3ccc(OC)cc3)C2)cc1", "note": "(stereo unspecified)", "Potency": "inconclusive: 8.2 µM [cytotoxic, partial curve]"},
      {"smiles": "COc1ccccc1OCCNC(=O)c1ccc2c(c1)CCC2", "Potency": "inconclusive: 11.6 µM [cytotoxic, partial curve, poor fit]"},
      {"smiles": "O=C(CC(Cc1ccccc1)C(=O)O)NCCc1ccc2c(c1)OCO2", "note": "(stereo unspecified)", "Potency": "inconclusive: 29.1 µM [rising, single point]"},
      {"smiles": "CC(C)n1nccc1N(Cc1ccc(Cl)cc1)S(=O)(=O)c1ccccc1", "Potency": "inconclusive: 16.4 µM [cytotoxic, partial curve]"},
      {"smiles": "COCCCNC(=O)c1ccc(-n2nc(C(F)(F)F)cc2-c2cccs2)cc1", "Potency": "inconclusive: 32.6 µM [cytotoxic, single point]"},
      {"smiles": "COc1ccc(Br)cc1S(=O)(=O)N1CCCc2ccccc21", "activity change, negative = cytotoxicity": "inactive: 3.22%"},
      {"smiles": "O=C(CC[C@H]1O[C@@H](n2cnc3c(NC(=O)c4ccccc4)ncnc32)[C@H](O)[C@@H]1O)NCC(F)(F)F", "activity change, negative = cytotoxicity": "inconclusive: 11.9%"},
      {"smiles": "COc1cc2c(cc1OC)C(c1ccccc1C)CC(=O)N2", "note": "(stereo unspecified)", "activity change, negative = cytotoxicity": "inactive: -9.82%"},
      {"smiles": "O=C(N/N=C/c1c[nH]c2ccccc12)c1ccc2c(c1)OCCO2", "Potency": "inconclusive: 20.6 µM [cytotoxic, single point]"},
      {"smiles": "COC(=O)c1ccc(OC(=O)/C=C/c2ccco2)cc1", "Potency": "inconclusive: 29.1 µM [rising, single point]"},
      {"smiles": "C=Cc1ccc(Cn2c(C)c(CNCCc3ccccc3C)c(C(=O)O)c2C)cc1", "Potency": "inconclusive: 16.4 µM [rising, single point]"},
      {"smiles": "CCOC(=O)/C(C#N)=C\\c1c(OCC)n(CC)c2ccccc12", "Potency": "inconclusive: 10.3 µM [cytotoxic, partial curve]"},
      {"smiles": "O=C(CCC1CCCCC1)Nc1cc(C(F)(F)F)ccc1N1CCOCC1", "Potency": "inconclusive: 10.3 µM [cytotoxic, partial curve]"},
      {"smiles": "Cn1nc(C(F)(F)F)c(C(=O)Nc2ccc(F)cc2F)c1Oc1cccc(Cl)c1", "Potency": "inconclusive: 10 µM [cytotoxic, partial curve, poor fit]"},
      {"smiles": "O=C(Nc1cc(S(=O)(=O)N2CCCC2)ccc1Cl)c1cc(F)c(F)c(F)c1F", "activity change, negative = cytotoxicity": "inactive: 4.34%"},
      {"smiles": "CC(C)[C@H](N)c1nnc(SCc2ccc(Cl)cc2)o1", "Potency": "active: 16.4 µM"},
      {"smiles": "O=C(Nc1nc(-c2ccccc2)cs1)C1CCCCN1S(=O)(=O)c1ccccc1", "note": "(stereo unspecified)", "Potency": "inconclusive: 20.6 µM [cytotoxic, single point]"},
      {"smiles": "CC(C)c1ccc(CSc2ccc(S(=O)(=O)N3CCOCC3)cn2)cc1", "Potency": "inconclusive: 5.8 µM [cytotoxic, partial curve]"},
      {"smiles": "Cc1nn(-c2ccccc2)c(C)c1/C=C/C(=O)OC(C)C(N)=O", "note": "(stereo unspecified)", "Potency": "active: 23.1 µM"},
      {"smiles": "CC(Oc1ccc(Cl)cc1Cl)C(=O)NCCCCc1ccccc1", "note": "(stereo unspecified)", "Potency": "inconclusive: 29.1 µM [cytotoxic, single point]"},
      {"smiles": "CCOC(=O)N1CCC(NC(=O)C2CCCN(C(=O)c3cc4sccc4n3C)C2)CC1", "note": "(stereo unspecified)", "Potency": "inconclusive: 29.1 µM [rising, single point]"},
      {"smiles": "Cc1ccn2c(=O)c(C(=O)NCCCN3CCCCC3C)c(O)nc2c1", "note": "(stereo unspecified)", "Potency": "inactive"},
      {"smiles": "CCOc1ccccc1NC(=O)CCC(=O)Nc1ccccc1OCC", "activity change, negative = cytotoxicity": "inactive: -6.55%"},
      {"smiles": "CS(=O)(=O)N(Cc1nc(-c2ccc(F)cc2)no1)c1ccccc1Cl", "Potency": "inconclusive: 16.4 µM [cytotoxic, single point]"},
      {"smiles": "Nc1ccc(S(=O)(=O)Nc2ccc(Cl)nn2)cc1", "Potency": "inconclusive: 29.1 µM [rising, single point]"},
      {"smiles": "Cc1nn(-c2ccccc2)c(C)c1NC(=O)COc1ccc(Br)cc1Cl", "Potency": "inconclusive: 7.31 µM [cytotoxic, partial curve]"},
      {"smiles": "COc1ccccc1CCC(=O)Nc1ncc(C)s1", "Potency": "active: 23.1 µM"},
      {"smiles": "Clc1ccc(CSc2nncn2-c2ccccn2)cc1", "activity change, negative = cytotoxicity": "inactive: -2.69%"},
      {"smiles": "COc1ccc(CCN2CC(C(=O)NCc3cc(C(C)C)no3)CCC2=O)cc1", "note": "(stereo unspecified)", "activity change, negative = cytotoxicity": "inactive: -9.68%"},
      {"smiles": "COc1ccc(C)cc1Nc1n[n+](-c2ccccc2)c(-c2c(Cl)cccc2Cl)s1", "Potency": "inconclusive: 29.1 µM [cytotoxic, single point]"},
      {"smiles": "CC(C)C(NC(=O)C(c1ccccc1)c1ccccc1)c1nc2ccccc2[nH]1", "note": "(stereo unspecified)", "Potency": "inconclusive: 18.4 µM [cytotoxic, single point]"},
      {"smiles": "COc1ccc(OCC(=O)Nc2nnc3n2CCS3)cc1", "Potency": "inconclusive: 7.31 µM [rising, partial curve]"}
    ]}
  ]
}
